Data taken from patent publication US20150328292A1, “CASPASE POLYPEPTIDES HAVING MODIFIED ACTIVITY AND USES THEREOF” (BELLICUM PHARMACEUTICALS, INC., priority 2014, published 2015).

System: HEK293T/16 cells
Assay: Western blot of protein expression and proteolysis
Type: cell-based, human
Conditions: 72 hours post-transfection, 1 or 2 μg plasmid
Experimental: The lysates were collected and lysed on ice for 30 min. After pelleting cell debris, protein concentrations from overlying supernatants were measured in 96-well plates with BCA™ Protein Assay as recommended by the manufacturer. 30 μg of proteins were boiled in Laemmli sample buffer (Bio-Rad, Hercules, Calif.) with 2.5% 2-mercaptoethanol for 5 min at 95° C. before being separated by Criterion TGX 10% Tris/glylcine protein gel. Membranes were probed with 1/1000 rabbit anti-human caspase-9 polyclonal antibody followed by 1/10,000 HRP-conjugated goat anti-rabbit IgG F(ab′)2 secondary antibody (Bio-Rad). Protein bands were detected using Supersignal West Femto chemiluminescent substrate. To ensure equivalent sample loading, blots were stripped at 65° C. for 1 hour with Restore PLUS Western Blot Stripping Buffer before labeling with 1/10,000 rabbit anti-actin polyclonal antibody. Unless otherwise stated, all the reagents were purchased from Thermo Scientific.

B1: N405Q: ΔCasp9 (res. 135-416) N405Q, SEQ ID NO: 26 (protein)
chain: GFGDVGALESLRGNADLAYILSMEPCGHCLIINNVNFCRESGLRTRTGSNIDCEKLRRRFSSLHFMVEVKGDLTAKKMVLALLELARQDHGALDCCVVVILSHGCQASHLQFPGAVYGTDGCPVSVEKIVNIFNGTSCPSLGGKPKLFFIQACGGEQKDHGFEVASTSPEDESPGSNPEPDATPFQEGLRTFDQLDAISSLPTPSDIFVSYSTFPGFVSWRDPKSGSWYVETLDDIFEQWAHSEDLQSLLLRVANAVSVKGIYKQMPGCFQFLRKKLFFKTS
protein expression level: darker than the others
